{"source": "PubChem BioAssay AID434947", "about": "(Broad Institute, 2010)", "note": "Hit rate of the full screen: of about 2,200 compounds, about 15 (0.7%) were called active.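 The calls were made as follows: active = fitted half-maximal concentration for loss of luminescence signal no more than a set limit of log units above the top tested concentration; inconclusive = flat fit with 30 to 70% signal loss, or invalid fit; inactive = half-maximal concentration above that set limit.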 The list shows a part of the results.", "data": [{"assay": "inhibitors of ADP-Glo detection reagents, dose response, artefact control for GSK3beta inhibitor project, biochemical, luminescence, cell-free, homogeneous (AID 434947)", "conditions": "5 uM ADP", "values": [{"smiles": "Nc1nc(Nc2ccccc2)nc(N2CCOCC2)c1[N+](=O)[O-]", "EC50": "inactive: > 30 µM"}, {"smiles": "COCCn1c(SCC(=O)Nc2ccc(S(=O)(=O)N(C)C)cc2)nc2ccccc21", "EC50": "inactive: > 30 µM"}, {"smiles": "COc1cccc(N(C(=O)CS(=O)CC(=O)Nc2ccc(F)cc2)C(C(=O)NC2CCCCC2)c2cccs2)c1", "note": "(centres undefined)", "EC50": "inactive: > 30 µM"}, {"smiles": "COCCN(CCOC)Cc1c(O)ccc2c1O/C(=C\\c1ccco1)C2=O", "EC50": "inactive: > 30 µM"}, {"smiles": "O=C(O)c1ccccc1Nc1ccnc(Cl)n1", "EC50": "inactive: > 30 µM"}, {"smiles": "CCCCn1nc(NC(=O)COC)c2cc3cc(OC)ccc3nc21", "EC50": "inactive: > 30 µM"}, {"smiles": "COCCCNc1nc(N)c([N+](=O)[O-])c(Nc2ccccc2OC)n1", "EC50": "inactive: > 30 µM"}, {"smiles": "Cc1ncc(CN2CCCC(C(=O)Nc3ccc(-c4cccc(F)c4)cc3)C2)cn1", "note": "(centres undefined)", "EC50": "inactive: > 30 µM"}, {"smiles": "CC(C(=O)Nc1nc2ccccc2s1)n1cc([N+](=O)[O-])cn1", "note": "(centres undefined)", "EC50": "inactive: > 30 µM"}, {"smiles": "CCOc1cccc(C(=O)Nc2cccc(-c3nc4ncccc4o3)c2C)c1", "EC50": "inactive: > 30 µM"}, {"smiles": "COc1ccccc1Nc1nc(NCC(C)C)nc(N)c1[N+](=O)[O-]", "EC50": "inactive: > 30 µM"}, {"smiles": "COc1ccc(Nc2nc(N)c([N+](=O)[O-])c(N3CCOCC3)n2)cc1", "EC50": "inactive: > 30 µM"}, {"smiles": "COc1ccc2c(CC(=O)Nc3ncc(C)s3)coc2c1", "EC50": "inactive: > 30 µM"}, {"smiles": "CN1CCc2c(sc3c2c(=O)n(-c2ccccc2)c2n[nH]c(=S)n32)C1", "EC50": "inactive: > 30 µM"}, {"smiles": "CCOc1ccc2nc(N3CCC(C(=O)N4CCN(C5CCCCC5)CC4)CC3)sc2c1", "EC50": "inactive: > 30 µM"}, {"smiles": "O=c1c(O)c(-c2ccc(O)cc2)oc2cc(O)cc(O)c12", "EC50": "inactive: > 30 µM"}, {"smiles": "CN(C)Cc1c(C(=O)N/N=C/c2ccccc2OCc2c(F)cccc2Cl)nnn1-c1nonc1N", "EC50": "inactive: > 30 µM"}, {"smiles": "COc1ccc(C(=O)N/C(=C\\c2ccco2)C(=O)NCCN2CCOCC2)cc1", "EC50": "inactive: > 30 µM"}, {"smiles": "CN(CCO)S(=O)(=O)c1ccc2c(c1)C(=NNC(N)=O)c1cc(S(=O)(=O)N(C)CCO)ccc1-2", "EC50": "inactive: > 30 µM"}, {"smiles": "Nc1ncnc(NC2CCS(=O)(=O)C2)c1[N+](=O)[O-]", "note": "(centres undefined)", "EC50": "inactive: > 30 µM"}, {"smiles": "COC(=O)c1c(C)oc2ccc(OC(=O)c3cccs3)cc12", "EC50": "inactive: > 30 µM"}, {"smiles": "COc1ccc(CC(=O)OCC(=O)Nc2ccc(Cl)cn2)cc1", "EC50": "inactive: > 30 µM"}, {"smiles": "CCCc1c(NC(=O)Nc2ccc(F)cc2)cnn1-c1ccccc1", "EC50": "inactive: > 30 µM"}, {"smiles": "CCOC(=O)c1ccc(NC(=O)Nc2ccccn2)cc1", "EC50": "inactive: > 30 µM"}, {"smiles": "COC(=O)C(C)Oc1cc(OC(C)C(=O)OC)c2c(-c3ccccc3)cc(=O)oc2c1", "note": "(centres undefined)", "EC50": "inactive: > 30 µM"}, {"smiles": "CC1(C)N=C(N)N=C(N)N1c1ccc(Oc2ccc(Cl)cc2)c(Cl)c1", "EC50": "inactive: > 30 µM"}, {"smiles": "COc1ccc(CNC(=O)CN(Cc2ccccc2)C(=O)CCC(=O)Nc2ccccn2)cc1", "EC50": "inactive: > 30 µM"}, {"smiles": "Nc1nc(NCCCN2CCOCC2)nc(NCc2ccccc2)c1[N+](=O)[O-]", "EC50": "inactive: > 30 µM"}, {"smiles": "Cn1c(SCC(=O)Nc2ccc(Br)cn2)nnc1C1CC1", "EC50": "inactive: > 30 µM"}, {"smiles": "CC(=O)c1ccc(Cc2cnc(N)s2)cc1", "EC50": "inactive: > 30 µM"}, {"smiles": "Nc1nc(NCC(=O)O)nc(NC2CCCCC2)c1[N+](=O)[O-]", "EC50": "inactive: > 30 µM"}, {"smiles": "O=C1CC(N2CCC(c3nc4ccccc4s3)CC2)C(=O)N1", "note": "(centres undefined)", "EC50": "inactive: > 30 µM"}, {"smiles": "Cc1ccc(C(OCCN(C)C)c2cccc(C(F)(F)F)c2)cc1", "note": "(centres undefined)", "EC50": "inactive: > 30 µM"}, {"smiles": "Cc1ccnc(NC(=O)C2CC(=O)N(c3ccc4c(c3)OCCO4)C2)c1", "note": "(centres undefined)", "EC50": "inactive: > 30 µM"}, {"smiles": "CN(C)N=Nc1ccc(S(N)(=O)=O)cc1", "EC50": "inactive: > 30 µM"}, {"smiles": "O=C(N/N=C/c1ccc(O)c(O)c1)N/N=C/c1ccc(O)c(O)c1", "EC50": "inactive: > 30 µM"}, {"smiles": "CCN1CCN(C(=O)c2cc3cc4cc(OC)ccc4nc3s2)CC1", "EC50": "inactive: > 30 µM"}, {"smiles": "Fc1ccc(CSc2nnc(-c3ccncc3)o2)cc1", "EC50": "inactive: > 30 µM"}, {"smiles": "O=C(Cc1ccc(Br)cc1)Nc1ncc([N+](=O)[O-])s1", "EC50": "inactive: > 30 µM"}, {"smiles": "O=C(NCCc1ccccc1)c1cccc(Br)c1", "EC50": "inactive: > 30 µM"}, {"smiles": "O=C(Nc1ccccn1)Nc1ccccc1[N+](=O)[O-]", "EC50": "inactive: > 30 µM"}, {"smiles": "O=C(O)c1cccc(CSc2nnc(-c3cccnc3)o2)c1", "EC50": "inactive: > 30 µM"}, {"smiles": "N#CC1=C2SCN(Cc3ccccc3)CN2C(=O)CC1c1cccs1", "note": "(centres undefined)", "EC50": "inactive: > 30 µM"}, {"smiles": "O=C(CCS(=O)(=O)c1ccccc1)Nc1cccc2c1C(=O)NC2=O", "EC50": "inactive: > 30 µM"}, {"smiles": "N#Cc1c(-c2cccs2)nc(SCC(=O)c2ccc(Br)cc2)[nH]c1=O", "EC50": "inactive: > 30 µM"}, {"smiles": "COc1cccc(C(N)=O)c1", "EC50": "inactive: > 30 µM"}, {"smiles": "COc1ccc(C2C(C(C)=O)=C(O)C(=O)N2c2nccs2)c(OC)c1", "note": "(centres undefined)", "EC50": "inactive: > 30 µM"}, {"smiles": "COc1ccc(-c2nn(CCC#N)cc2/C=N/O)cc1OC", "EC50": "inactive: > 30 µM"}, {"smiles": "N#Cc1ccccc1NC(=O)CSc1nnc(-c2ccncc2)o1", "EC50": "inactive: > 30 µM"}, {"smiles": "COc1ccc(Cl)cc1-n1c(C)ccc1C", "EC50": "inactive: > 30 µM"}, {"smiles": "Cc1ccc(S(=O)(=O)N(C)C)cc1NC(=O)c1ccc(OC(F)(F)F)cc1", "EC50": "inactive: > 30 µM"}, {"smiles": "Cc1cccc(C(=O)NCC(c2ccco2)N2CCc3ccccc32)c1", "note": "(centres undefined)", "EC50": "inactive: > 30 µM"}, {"smiles": "c1ccc2c(Nc3nc(-c4ccncc4)nc4ccccc34)cccc2c1", "EC50": "inactive: > 30 µM"}, {"smiles": "COCCn1c(SCC(=O)NCc2ccccc2)nc2ccccc21", "EC50": "inactive: > 30 µM"}, {"smiles": "N#Cc1c(-c2ccccc2)nc(-c2ccccc2)[nH]c1=O", "EC50": "inactive: > 30 µM"}, {"smiles": "Cn1c(=O)[nH]c(=O)c2c1nc(Br)n2Cc1ccccc1Cl", "EC50": "inactive: > 30 µM"}, {"smiles": "O=C1NC(c2cccs2)Nc2sc3c(c21)CCCC3", "note": "(centres undefined)", "EC50": "inactive: > 30 µM"}, {"smiles": "CC(C)(C)Sc1ccc(/C=N/O)cc1[N+](=O)[O-]", "EC50": "inactive: > 30 µM"}, {"smiles": "COc1ccc(OC)c(C(=O)c2coc3ccc(O)cc23)c1", "EC50": "inactive: > 30 µM"}, {"smiles": "Cc1ccc2nc(-c3ccc4c(c3)NC(=O)CO4)cn2c1", "EC50": "inactive: > 30 µM"}, {"smiles": "Cc1ccc(C(=O)O/N=C(\\N)c2ccccn2)c(C)c1", "EC50": "active: 17.6 µM"}, {"smiles": "O=C(Nc1sccc1C(=O)N1CCOCC1)c1cccnc1", "EC50": "inactive: > 30 µM"}, {"smiles": "CCOC(=O)CNC(=O)CSc1ccc2nnc(-c3cccnc3)n2n1", "EC50": "inactive: > 30 µM"}, {"smiles": "COC(=O)c1nnn(-c2nonc2N)c1CSCCO", "EC50": "inactive: > 30 µM"}, {"smiles": "O=S(=O)(Nc1cccnc1)c1ccc(C2CCCCC2)cc1", "EC50": "inactive: > 30 µM"}, {"smiles": "Cc1cccc(/C=C2/Sc3ccc(C(=O)NCCN4CCCC4)cc3NC2=O)c1", "EC50": "inactive: > 30 µM"}, {"smiles": "O=C(Nc1nnc(-c2cc(Cl)ccc2Cl)o1)c1ccco1", "EC50": "inactive: > 30 µM"}, {"smiles": "O=C(/C=C/c1ccc2ccccc2c1)c1ccoc1", "EC50": "inactive: > 30 µM"}, {"smiles": "CCn1c(SCC(=O)Nc2ccc(C(C)=O)cc2)nnc1C1CC1", "EC50": "inactive: > 30 µM"}, {"smiles": "Cc1cc(C)n2nc(C(=O)OCC(=O)NC(=O)c3ccccc3)nc2n1", "EC50": "inactive: > 30 µM"}, {"smiles": "COc1ccc(Nc2nc(-c3ccccc3)c(C(=O)Nc3cccnc3)s2)cc1", "EC50": "inactive: > 30 µM"}, {"smiles": "COc1cccc(C(=O)Nc2ccc(C(=O)NCC(C)C)cc2)c1", "EC50": "inactive: > 30 µM"}, {"smiles": "CCOc1ccccc1NC(=O)CSc1nnc(C2CC2)n1CC", "EC50": "inactive: > 30 µM"}, {"smiles": "Cc1ccccc1-c1nnc(SCc2ccccc2F)o1", "EC50": "inactive: > 30 µM"}, {"smiles": "CC(=O)N1CCc2c(sc(NC(=O)Cc3ccccc3)c2C(N)=O)C1", "EC50": "inactive: > 30 µM"}, {"smiles": "CC(=O)Oc1ccc2occ(C(=O)c3cccs3)c2c1", "EC50": "inactive: > 30 µM"}, {"smiles": "Cc1ccc(C(=O)c2coc3ccc(O)cc23)cc1", "EC50": "inactive: > 30 µM"}, {"smiles": "Cc1ccc(-c2nn(-c3ccccc3)cc2/C=N/NS(=O)(=O)c2ccccc2)cc1", "EC50": "inactive: > 30 µM"}, {"smiles": "CCCN(C(=O)CCNC(=O)Cn1cnc2ccccc2c1=O)c1cccc(Cl)c1", "EC50": "inactive: > 30 µM"}, {"smiles": "CSCCC(C(=O)NCc1cccs1)N1C(=O)c2ccccc2C1=O", "note": "(centres undefined)", "EC50": "inactive: > 30 µM"}, {"smiles": "NS(=O)(=O)c1ccc(NC(=O)CN2C(=O)CCC2=O)cc1", "EC50": "inactive: > 30 µM"}, {"smiles": "COC(=O)CSc1ccc2nnc(-c3ccc(F)cc3)n2n1", "EC50": "inactive: > 30 µM"}, {"smiles": "COc1ccc(-c2cc(C(=O)N3CCN(C(=O)c4ccco4)CC3)[nH]n2)cc1", "EC50": "inactive: > 30 µM"}, {"smiles": "CCCCn1nc(NC(=O)c2cccs2)c2cc3cc(OC)ccc3nc21", "EC50": "inactive: > 30 µM"}, {"smiles": "Fc1cccc(/C=N/Nc2ncnc3nc[nH]c23)c1", "EC50": "inactive: > 30 µM"}, {"smiles": "Nc1nc(Nc2ccccc2)nc(NCc2ccccc2)c1[N+](=O)[O-]", "EC50": "inactive: > 30 µM"}, {"smiles": "O=C(N/N=C/c1ccc(Br)s1)c1cccnc1", "EC50": "inactive: > 30 µM"}, {"smiles": "CC1(C)CC(=O)C=C(Nc2ccccc2O)C1", "EC50": "inactive: > 30 µM"}, {"smiles": "COc1cccc2cc(C(=O)NCc3ccc(C)cc3)c(=N)oc12", "EC50": "inactive: > 30 µM"}, {"smiles": "Nc1ncnc(N2CCc3ccccc32)c1[N+](=O)[O-]", "EC50": "inactive: > 30 µM"}, {"smiles": "COc1cccc2cc(CC(=O)c3ccc(C)cc3C)c(=O)oc12", "EC50": "inactive: > 30 µM"}, {"smiles": "Cc1cccc(Nc2nc(NCCCN3CCOCC3)nc(N)c2[N+](=O)[O-])c1", "EC50": "inactive: > 30 µM"}, {"smiles": "NS(=O)(=O)c1ccc(CCNC(=O)CSc2nc3ccsc3c(=O)n2C2CC2)cc1", "EC50": "inactive: > 30 µM"}, {"smiles": "Nc1nonc1-n1nnc(C(=O)N/N=C/c2ccccc2)c1CN1CCc2ccccc21", "EC50": "inactive: > 30 µM"}]}]}
